Experimental data reported in patent US12227479B2, “Dihydropyridines for the treatment of cognitive impairment or traumatic brain injury” (Icahn School of Medicine at Mount Sinai, priority 2017, dated 2025).
“Also recorded” adds a separate entry of the source. At least one structure is not confirmed: it was looked up by name or label, or the drawing left a doubt.

Tests used:
[1] = tested on: Ca2+- L type calcium channel (dihydropyridine site); experiment: Calcium channel activity, Cerep radioligand displacement (dihydropyridine site, antagonist); assay type: binding
Description: [table] […] DMSO-treated conditions were used as controls and results were presented as percentage of the control (±SEM). […] FIGS. 3A, B and C). […] FIGS. 3A, B and C). […] D) In vitro calcium channel inhibition assays. Results were presented as percentage of inhibition (±SEM). […] One-way ANOVA was performed followed by post-hoc multiple comparison tests to determine the significance of differences between drug-treated vs DMSO control. *p<0.05, **p<0.01, ***p<0.001; N=3/condition except in A) nimodipine-treated conditions with N=20.

[2] = tested on: APP/PS1 transgenic mouse; experiment: Long-term daily IP treatment of AD transgenic mice: NOR and Y maze behavior tests; assay type: in vivo; settings: 2.5 mg/kg/day IP for 6 months, vs vehicle Tg mice
Description: Data is presented as % of wt control (vehicle-treated) time spent exploring novel objects. N=13-15/group. C) Cortical brain synj1 levels as well as D) PIP2 levels in Tg mice (vehicle-, nimodipine- or Example 9-treated) were compared to vehicle-treated controls (as 100%) in wildtype (wt) mice. N=7-13/group. One-way ANOVA was performed followed by post-hoc multiple comparison tests to determine the significance of differences between pairs of means. *p<0.05, **p<0.01, ***p<0.001, ****p<0.0001.

[3] = tested on: synj1; experiment: Western blot of synj1 protein levels in ApoE3 cortical neurons; assay type: cell-based; settings: 7-9 days
[4] = tested on: synj1; experiment: Western blot of synj1 protein levels in ApoE4 cortical neurons; assay type: cell-based; settings: 625 nM; 7-9 days; N=4
[5] = tested on: Tau; experiment: Total Tau levels in N2a cells expressing human Tau (ELISA and Western blot); assay type: cell-based; settings: 7-9 days

SMILES | calcium channel inhibition ([1]; 1 nM) | calcium channel inhibition ([1]; 1 μM) [%] | cognitive function in NOR and Y-maze tests (in words) [2] | synj1 levels in ApoE3 neurons (in words) ([3]; 500 nM, N=2) | synj1 levels in ApoE3 neurons (in words) ([3]; dose range 62.5-625 nM) | synj1 levels in ApoE4 neurons (in words) [4] | potency in lowering total Tau (in words) [5]
COCCOC(=O)C1=C(C)NC(C)=C(C(=O)OC(C)C)C1c1cccc([N+](=O)[O-])c1 (racemic) [nimodipine] | inhibition at 1 nM versus Nimodipine which shows 93.4% | 99.6 | cognitive improvements; also recorded: There was also functional rescue measured by NOR and Y-; also recorded: also functional rescue measured by NOR and Y-maze tests in |  |  |  | 
COCCOC(=O)C1=C(C)NC(C)=C(C(=O)OC(C)C)C1c1ccc(C(F)(F)F)cc1 (stereo not shown) [Example 6, 3-isopropyl 5-(2-methoxyethyl) 2,6-dimethyl-4-(4-(trifluoromethyl)phenyl)-1,4-dihydropyridine-3,5-dicarboxylate] |  |  |  | trend of reduction in synj1 levels is seen in ApoE3 neurons at 500 nM, but is not statistically significant | seems to reduce synj1 levels in ApoE3 neurons in a dose-dependent fashion | can reduce synj1 effectively | more potent than either Example 9 or nimodipine
